Reference: article PMC3676356
No constants are given. Whether binding was seen depends on the method and setting. Some binding calls cover weakened binding; strength is not graded here.

Key:
Assay in all cases: SEC; protein extracts of 7-d.o. seedlings (600 µg total protein) fractionated on Superdex 200 10/300 GL at 4°C in 50 mM Tris-HCl pH 7.5, 150 mM NaCl, 1 mM EDTA, 10% glycerol, 10 mM MgCl2, 1 mM DTT; 0.5 mL fractions immunoblotted with antibodies against CSN subunits
[1] = target: T1, COP9 signalosome subunit 1 (CSN1) (Arabidopsis thaliana (endogenous in Col-0 and csn3-3 seedlings)) (UniProt P45432)
T1 sequence: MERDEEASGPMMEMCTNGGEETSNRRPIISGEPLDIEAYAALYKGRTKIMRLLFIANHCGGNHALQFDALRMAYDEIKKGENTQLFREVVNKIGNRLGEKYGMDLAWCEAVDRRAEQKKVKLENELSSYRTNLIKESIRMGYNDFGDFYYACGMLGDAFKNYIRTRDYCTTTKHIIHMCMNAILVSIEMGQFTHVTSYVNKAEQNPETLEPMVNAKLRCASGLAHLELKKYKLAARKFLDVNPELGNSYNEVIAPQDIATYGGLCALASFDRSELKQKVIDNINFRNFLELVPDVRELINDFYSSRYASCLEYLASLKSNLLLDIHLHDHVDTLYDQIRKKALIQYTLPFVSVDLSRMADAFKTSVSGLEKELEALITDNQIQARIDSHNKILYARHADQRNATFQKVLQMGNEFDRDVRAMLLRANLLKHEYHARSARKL

[2] = target: T2, COP9 signalosome subunit 4 (CSN4) (Arabidopsis thaliana (endogenous in Col-0 and csn3-3 seedlings)) (UniProt Q8L5U0)
T2 sequence: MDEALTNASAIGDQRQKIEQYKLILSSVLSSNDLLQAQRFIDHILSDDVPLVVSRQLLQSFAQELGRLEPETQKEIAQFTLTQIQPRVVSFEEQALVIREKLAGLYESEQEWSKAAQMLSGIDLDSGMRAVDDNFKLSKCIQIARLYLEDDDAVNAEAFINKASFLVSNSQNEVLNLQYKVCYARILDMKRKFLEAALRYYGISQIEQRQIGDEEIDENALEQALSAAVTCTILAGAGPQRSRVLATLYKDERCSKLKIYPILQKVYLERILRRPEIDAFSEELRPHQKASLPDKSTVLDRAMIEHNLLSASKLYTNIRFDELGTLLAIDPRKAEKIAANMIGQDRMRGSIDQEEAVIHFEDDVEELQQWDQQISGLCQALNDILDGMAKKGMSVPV

[3] = target: T3, COP9 signalosome subunit 8 (CSN8) (Arabidopsis thaliana (endogenous in Col-0 and csn3-3 seedlings)) (UniProt P43255)
T3 sequence: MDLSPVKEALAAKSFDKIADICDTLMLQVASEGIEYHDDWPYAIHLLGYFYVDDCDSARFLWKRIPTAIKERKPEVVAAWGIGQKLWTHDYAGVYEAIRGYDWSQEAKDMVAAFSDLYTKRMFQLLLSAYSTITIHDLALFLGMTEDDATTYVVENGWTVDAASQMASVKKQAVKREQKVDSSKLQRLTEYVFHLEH

Measured: binding

B1: COP9 signalosome subunit 3 (CSN3) (protein, UniProt Q8W575 1-429)
chain: MIGAVNSVEAVITSIQGLSGSPEDLSALHDLLRGAQDSLRAEPGVNFSTLDQLDASKHSLGYLYFLEVLTCGPVSKEKAAYEIPIIARFINSCDAGQIRLASYKFVSLCKILKDHVIALGDPLRGVGPLLNAVQKLQVSSKRLTALHPDVLQLCLQAKSYKSGFSILSDDIVEIDQPRDFFLYSYYGGMICIGLKRFQKALELLYNVVTAPMHQVNAIALEAYKKYILVSLIHNGQFTNTLPKCASTAAQRSFKNYTGPYIELGNCYNDGKIGELEALVVARNAEFEEDKNLGLVKQAVSSLYKRNILRLTQKYLTLSLQDIANMVQLGNAKEAEMHVLQMIQDGQIHALINQKDGMVRFLEDPEQYKSSEMIEIMDSVIQRTIGLSKNLLAMDESLSCDPLYLGKVGRERQRYDFGDDFDTVPQKFSM
binds: [1] | [2] | [3]

B2: csn3-3 mutant protein (CSN3 G293E) (protein, UniProt Q8W575 1-429)
chain: MIGAVNSVEAVITSIQGLSGSPEDLSALHDLLRGAQDSLRAEPGVNFSTLDQLDASKHSLGYLYFLEVLTCGPVSKEKAAYEIPIIARFINSCDAGQIRLASYKFVSLCKILKDHVIALGDPLRGVGPLLNAVQKLQVSSKRLTALHPDVLQLCLQAKSYKSGFSILSDDIVEIDQPRDFFLYSYYGGMICIGLKRFQKALELLYNVVTAPMHQVNAIALEAYKKYILVSLIHNGQFTNTLPKCASTAAQRSFKNYTGPYIELGNCYNDGKIGELEALVVARNAEFEEDKNLELVKQAVSSLYKRNILRLTQKYLTLSLQDIANMVQLGNAKEAEMHVLQMIQDGQIHALINQKDGMVRFLEDPEQYKSSEMIEIMDSVIQRTIGLSKNLLAMDESLSCDPLYLGKVGRERQRYDFGDDFDTVPQKFSM
binds: [1] | [2] | [3]
